# Results: publication doi:10.1101/669812
# The chains behind the UniProt entries cited, without tags or fusion partners. Residues count along the entry.
# UniProt P10747, residues 19-220: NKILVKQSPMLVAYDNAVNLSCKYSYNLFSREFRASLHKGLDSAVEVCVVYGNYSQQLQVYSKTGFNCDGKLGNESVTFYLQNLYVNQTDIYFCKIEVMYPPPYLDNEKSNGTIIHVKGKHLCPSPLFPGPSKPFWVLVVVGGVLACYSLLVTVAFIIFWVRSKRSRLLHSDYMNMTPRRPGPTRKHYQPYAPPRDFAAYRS
# UniProt Q7Z6A9, residues 31-289: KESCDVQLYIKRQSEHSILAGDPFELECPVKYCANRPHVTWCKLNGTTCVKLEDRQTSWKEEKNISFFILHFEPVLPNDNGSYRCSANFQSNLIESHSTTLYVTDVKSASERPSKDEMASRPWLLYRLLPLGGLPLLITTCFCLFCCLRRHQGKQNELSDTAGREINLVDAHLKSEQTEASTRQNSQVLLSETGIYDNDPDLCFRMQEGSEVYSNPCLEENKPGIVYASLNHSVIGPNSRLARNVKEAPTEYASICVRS
# UniProt Q15116, residues 25-288: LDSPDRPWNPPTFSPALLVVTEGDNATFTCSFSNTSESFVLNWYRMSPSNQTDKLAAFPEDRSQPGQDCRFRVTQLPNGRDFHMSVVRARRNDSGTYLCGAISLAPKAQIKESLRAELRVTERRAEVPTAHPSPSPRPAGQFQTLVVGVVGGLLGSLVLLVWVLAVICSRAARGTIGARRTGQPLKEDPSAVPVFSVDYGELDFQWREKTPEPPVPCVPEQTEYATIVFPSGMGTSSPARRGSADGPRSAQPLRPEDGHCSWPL
# UniProt P27986: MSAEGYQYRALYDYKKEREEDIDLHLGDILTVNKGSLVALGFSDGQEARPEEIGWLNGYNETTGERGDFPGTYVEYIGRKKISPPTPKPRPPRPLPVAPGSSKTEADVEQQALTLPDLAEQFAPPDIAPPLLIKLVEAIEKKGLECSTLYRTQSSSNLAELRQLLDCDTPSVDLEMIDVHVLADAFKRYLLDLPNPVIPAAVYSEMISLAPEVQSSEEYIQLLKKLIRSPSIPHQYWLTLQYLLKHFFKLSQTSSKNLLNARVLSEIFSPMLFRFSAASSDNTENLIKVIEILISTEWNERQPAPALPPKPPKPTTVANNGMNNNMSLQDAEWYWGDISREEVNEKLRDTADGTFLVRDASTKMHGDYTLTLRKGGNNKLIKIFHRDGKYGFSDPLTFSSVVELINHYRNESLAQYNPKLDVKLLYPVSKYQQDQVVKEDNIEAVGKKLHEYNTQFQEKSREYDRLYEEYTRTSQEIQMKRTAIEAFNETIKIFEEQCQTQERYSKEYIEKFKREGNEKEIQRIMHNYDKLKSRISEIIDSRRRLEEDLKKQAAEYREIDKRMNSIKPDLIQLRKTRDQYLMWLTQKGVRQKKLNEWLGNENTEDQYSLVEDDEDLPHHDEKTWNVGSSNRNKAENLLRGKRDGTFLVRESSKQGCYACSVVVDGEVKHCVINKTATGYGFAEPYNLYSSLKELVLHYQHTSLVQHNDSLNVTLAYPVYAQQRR
# UniProt P62993: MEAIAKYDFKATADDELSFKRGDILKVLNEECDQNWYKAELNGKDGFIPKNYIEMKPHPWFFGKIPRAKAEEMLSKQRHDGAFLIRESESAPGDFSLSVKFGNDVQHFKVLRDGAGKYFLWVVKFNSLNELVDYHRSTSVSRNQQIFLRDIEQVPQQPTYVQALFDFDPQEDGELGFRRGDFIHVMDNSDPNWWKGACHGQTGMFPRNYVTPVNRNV
# UniProt P43403: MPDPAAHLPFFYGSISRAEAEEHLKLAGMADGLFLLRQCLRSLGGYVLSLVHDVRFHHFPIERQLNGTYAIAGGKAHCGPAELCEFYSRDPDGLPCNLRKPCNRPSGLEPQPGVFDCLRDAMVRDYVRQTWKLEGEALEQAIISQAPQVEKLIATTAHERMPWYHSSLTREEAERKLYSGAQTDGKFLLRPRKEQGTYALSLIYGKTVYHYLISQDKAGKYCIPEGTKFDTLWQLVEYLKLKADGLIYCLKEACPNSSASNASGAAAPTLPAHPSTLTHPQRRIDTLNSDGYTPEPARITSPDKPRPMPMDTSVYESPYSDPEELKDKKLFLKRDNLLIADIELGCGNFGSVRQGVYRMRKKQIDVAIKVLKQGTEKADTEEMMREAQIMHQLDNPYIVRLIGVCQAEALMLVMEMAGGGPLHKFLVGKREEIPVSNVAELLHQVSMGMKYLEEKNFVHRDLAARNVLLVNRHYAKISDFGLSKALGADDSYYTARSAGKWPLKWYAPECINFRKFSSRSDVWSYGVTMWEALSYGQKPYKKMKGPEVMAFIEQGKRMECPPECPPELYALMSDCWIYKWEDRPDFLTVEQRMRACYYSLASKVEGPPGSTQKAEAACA
# Where two headings read alike, the source gives them in different places. These are yes or no findings as the source states them, for the method shown. In cells and extracts the contact can be indirect. Some binding calls cover weakened binding; strength is not graded here.
# B1: SAP (protein, UniProt O60880 1-128)
# chain: MDAVAVYHGKISRETGEKLLLATGLDGSYLLRDSESVPGVYCLCVLYHGYIYTYRVSQTETGSWSAETAPGVHKRYFRKIKNLISAFQKPDQGIVIPLQYPVEKKSSARSTQGTTGIREDPDVCLKAP
# Legend:
# Experiment in all cases: co-IP
# [1] = target: CD28 (human (endogenous in Jurkat)) (UniProt P10747)
# BTLA (WT)-mGFP [2] = target: BTLA (WT)-mGFP (UniProt Q7Z6A9)
# PD-1 (WT)-mGFP = PD-1 (WT)-mGFP (UniProt Q15116)
# BTLA (WT)-mGFP [3] = target: BTLA (WT)-mGFP (UniProt Q7Z6A9); remark: listed apart in the source
Molecule,binding [1],binding (BTLA (WT)-mGFP [2]),binding (PD-1 (WT)-mGFP),binding (BTLA (WT)-mGFP [3])
"p85α, the regulatory subunit of PI3 kinases (from UniProt P27986 1-724)",binds,no binding,–,–
GRB2 (from UniProt P62993 1-217),–,no binding,–,–
ZAP70 (from UniProt P43403 1-619) (enzyme),–,no binding,no binding,–
B1,–,–,–,no binding
